# Data taken from PubChem BioAssay AID1487 (National Center for Advancing Translational Sciences (NCATS), 2009).
# Among all 200,000 compounds or so, about 25 (0.01%) were called active. Inconclusive results, whose numbers are uncertain, are shown with a selection of clear calls. The call rests on the fitted dose curve; in most records, active means well fitted inhibition curve with a large enough effect in the signal ratio, with a control signal flat (not every such curve was filed as active); inconclusive means small, poorly fitted or top-dose-only effect, or effect the other way, or a change in a side signal; inactive means flat fitted curve, though single readings scatter; the % refers to the signal ratio. A potency beside an inconclusive call is a rough fit, not a confirmed value.
# Experiment: qHTS Assay for Modulators of Lamin A Splicing
# Details: HeLa LMNA splicing GFP/RFP minigene ratio, 48 h; ratio change, negative = inhibition: at 46.1 µM (top of the series) unless noted
# Summary of the method: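 S3 HeLa cells stably expressing lamin A-EGFP splicing minigene plus DsRed2, 600 cells/well, 48 h compound exposure at 37C. Laser-scanning cytometry; analysed as GFP (500-530 nm)/RFP (575-640 nm) total intensity ratio; 0.5% DMSO vehicle.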
# On the % scale 0 is the no-effect control and ±100 the full control effect; potency means the concentration at half of the fitted maximal effect.
SMILES,"ratio change, negative = inhibition",Potency
CC(=O)N[C@@H](Cc1c[nH]c2ccccc12)C(=O)OCC(=O)Nc1ccc(Cl)c(S(=O)(=O)N(C)C)c1,inactive,–
CCn1nccc1C(=O)Nc1cc(Cl)ccc1Cl,inconclusive: 33.8%,–
O=C(CSc1nc2ccccc2s1)Nc1ccc(Cl)c(S(=O)(=O)N2CCOCC2)c1,–,"inconclusive: 12.6 µM [falling, partial curve]"
O=C(Nc1ccc2nc(SCc3ccc(Cl)cc3)sc2c1)c1ccccc1C(=O)N1CCOCC1,–,"inconclusive: 35.5 µM [cytotoxic, single point]"
Cc1cccc(C(C)C)c1-n1nnnc1-c1ccccc1,inconclusive: 31.2%,–
CC(C)OC(=O)CSc1nnc(SCc2cccc3ccccc23)s1,inactive,–
CCC(C(=O)NCc1ccncc1)c1ccccc1 (configuration not stated),inactive: 17.7% [at 9.22 µM],–
O=C(NCC(c1ccco1)N1CCN(c2ccc(F)cc2)CC1)OCc1ccccc1 (configuration not stated),–,"inconclusive: 35.5 µM [falling, single point]"
Nc1nc(=O)n(C2OC(CO)C(O)C2O)cc1Cl (configuration not stated),inconclusive: -30.2%,–
O=C1C2ON(c3ccccc3)C(c3cccnc3)C2C(=O)N1Cc1ccccc1 (configuration not stated),inactive,–
COc1ccc(Br)cc1-c1noc(-c2ccccc2F)n1,inactive,–
O=S(=O)(/C=C/c1ccccc1)Nc1ccc(N2CCOCC2)cc1,inactive,–
COc1ccc(Oc2nc3c(c(=O)n(C)c(=O)n3C)n2Cc2ccccc2)cc1,inactive,–
CC(=O)Nc1ccc(NC(=O)CC2Nc3cccc4cccc(c34)NC2=O)cc1 (configuration not stated),inactive,–
COc1cccc2cc(-c3nc4sc5c(c4c(=O)[nH]3)CCC(C(C)(C)C)C5)c(=O)oc12 (configuration not stated),inconclusive: -0.342% [at 46 µM],–
Cc1n[nH]c(C)c1C(=O)CC1(O)C(=O)N(CCc2ccccc2)c2ccc(Br)cc21 (configuration not stated),inactive,–
O=C(NCc1cccc(C(F)(F)F)c1)c1cccc(S(=O)(=O)NCc2ccccc2)c1,–,"inconclusive: 35.5 µM [falling, single point]"
N/C(Cc1ccc([N+](=O)[O-])cc1)=N\OC(=O)COc1ccc2ccccc2c1,–,"inconclusive: 35.5 µM [fluorescent, single point]"
CNC(=O)c1ccc(-c2sc3nc(N4CCOCC4)c4c(c3c2N)CCCC4)o1,inactive,–
Cc1ccc(-c2csc(NC(=O)c3ccc(S(=O)(=O)N4CCc5ccccc54)cc3)n2)cc1,–,"inconclusive: 7.08 µM [fluorescent, full curve]"
CCOC(=O)N1CCC(NC(=O)c2ccc3c(c2)sc2nc(-c4cccc(OC)c4)cn23)CC1,inconclusive: 5.72%,–
CN(C)CCCNc1ncc(C(F)(F)F)cc1Cl,inconclusive: 19.4% [at 46 µM],–

# Single entries from the list:
# For Potency, O=C(NCc1cccc(C(F)(F)F)c1)c1cccc(S(=O)(=O)NCc2ccccc2)c1 has inconclusive: 35.5 µM [falling, single point]
# For ratio change, negative = inhibition, Nc1nc(=O)n(C2OC(CO)C(O)C2O)cc1Cl (configuration not stated) has inconclusive: -30.2%
